PubChem BioAssay AID720505 | Drosophila RNAi Screening Center | 2013
The deposit covers about 20,000 reagents; below is a random part of those with a known target gene and a result. Of all reagents, about 2,100 (10%) were called active. 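Raw plate signals without normalisation; calls rest on control-based scores that were not deposited; replicate 2 separates called from uncalled poorly.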 Names joined by + are all predicted targets of the reagent. Not given: the amount of reagent, the time to read-out.

Aim: 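Fly regulators or components of the CRAC channel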 (primary screen)
System: Drosophila S2R+ cells
Knock-down reagent: long dsRNA against Drosophila genes
Conditions: thapsigargin (2 µM) in calcium-free buffer to empty internal stores, then 2 mM calcium added back
Measurement: 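Stores emptied by 2 µM thapsigargin without calcium, then 2 mM calcium re-added; fluo-4 fluorescence followed by FLIPR in 384-well plates, per-well averaged endpoint, raw; two screen passes, some wells retested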
Reading the numbers: calcium signal: higher = more calcium entry after store depletion
Hit rule: 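About 1500 genes called as lowering calcium entry, by varying amounts, judged against per-plate control wells with STIM1 as positive and Rho1 as negative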
Calls: active = called as lowering calcium entry; inactive = not called

| gene | DRSC id | calcium signal, replicate 1 | calcium signal, replicate 2 | Outcome |
| --- | --- | --- | --- | --- |
| CG8003 | DRSC10946 | 76.9 | 112 | inactive |
| CG5823 | DRSC15881 | 145 | 216 | inactive |
| CG8320 + ATPCL | DRSC07147 | 100 | 127 | inactive |
| CG13494 | DRSC04139 | 146 | 106 | inactive |
| Nubpl | DRSC03725 | 68.9 | 177 | active |
| Rab3 | DRSC07523 | 131 | 159 | inactive |
| Vps45 | DRSC16398 | 167 | 141 | inactive |
| alpha4GT1 | DRSC00488 | 104 | 195 | inactive |
| CG32811 | DRSC22649 | 77.8 | 201 | inactive |
| CG9630 | DRSC16527 | 90 | 112 | inactive |
| side-III | DRSC12155 | 158 | 190 | inactive |
| side-III | DRSC12263 | 150 | 238 | inactive |
| side-III | DRSC12264 | 143 | 195 | inactive |
| eEF1delta | DRSC02790 | 84.6 | 99.7 | inactive |
| odd | DRSC00832 | 182 | 78.4 | inactive |
| odd | DRSC23024 | 104 | 131 | inactive |
| CG12446 | DRSC20618 | 125 | 98.7 | inactive |
| Jheh3 | DRSC06533 | 119 | 133 | inactive |
| Opbp | DRSC04966 | 116 | 137 | inactive |
| CR17567 (retired record) | DRSC02627 | 72 | 167 | inactive |
| CR17567 (retired record) | DRSC22537 | 109 | 150 | inactive |
| Rift | DRSC14330 | 73.1 | 148 | inactive |
| CG17359 | DRSC10265 | 81.2 | 119 | inactive |
| Scox | DRSC03117 | 136 | 103 | inactive |
| CG11374 | DRSC00306 | 139 | 142 | inactive |
| VhaM9.7-d | DRSC15028 | 121 | 153 | inactive |
| siz | DRSC11622 | 92.2 | 116 | inactive |
| siz | DRSC11689 | 86.4 | 123 | inactive |
| siz | DRSC11690 | 90.2 | 96.5 | inactive |
| Ir52b | DRSC06263 | 50 | 140 | active |
| CG11155 | DRSC17205 | 102 | 156 | inactive |
| Tbcb | DRSC06067 | 161 | 113 | inactive |
| BomS2 | DRSC21488 | 122 | 87.2 | inactive |
| Syt4 | DRSC12606 | 112 | 106 | inactive |
| dmGlut | DRSC02835 | 104 | 96.6 | inactive |
| PGS1 | DRSC16304 | 189 | 194 | inactive |
| Whamy | DRSC14574 | 125 | 119 | inactive |
| Pig1 | DRSC18698 | 119 | 132 | inactive |
| CG9886 | DRSC00732 | 82.3 | 179 | inactive |
| rec | DRSC14998 | 138 | 122 | inactive |
| rec | DRSC15656 | 93.3 | 133 | inactive |
| Gr59d | DRSC22553 | 83 | 151 | inactive |
| CG15080 | DRSC06511 | 90.8 | 77.9 | inactive |
| CG2120 | DRSC18207 | 167 | 154 | inactive |
| dnc | DRSC17758 | 121 | 135 | inactive |
| dnc | DRSC17759 | 118 | 144 | inactive |
| dnc | DRSC17911 | 105 | 122 | inactive |
| dnc | DRSC18763 | 118 | 120 | inactive |
| dnc | DRSC18764 | 54.8 | 97.6 | active |
| ZC3H3 | DRSC10696 | 61.5 | 28.9 | active |
| Mal-B1 | DRSC02416 | 210 | 141 | inactive |
| CG31867 | DRSC03338 | 162 | 147 | inactive |
| CG43123 | DRSC05049 | 86.9 | 120 | inactive |
| Trc8 | DRSC15437 | 77.9 | 159 | inactive |
| CG11807 | DRSC06087 | 121 | 130 | inactive |
| CG1231 | DRSC08267 | 101 | 86.9 | inactive |

In a second layout: results already given.
CG13494 [DRSC04139]
- calcium signal, replicate 1: 146
- calcium signal, replicate 2: 106
- Outcome: inactive

Nubpl [DRSC03725]
- calcium signal, replicate 1: 68.9
- calcium signal, replicate 2: 177
- Outcome: active

Rab3 [DRSC07523]
- calcium signal, replicate 1: 131
- calcium signal, replicate 2: 159
- Outcome: inactive

Vps45 [DRSC16398]
- calcium signal, replicate 1: 167
- calcium signal, replicate 2: 141
- Outcome: inactive
